Experimental data reported in PMC10112802.
No constants are given. Whether binding was seen depends on the method and setting. Binding seen in cells or lysates may run through a third protein. Some results given as binding are weak or reduced against the parent protein; the word gives no strength. For some assays here: Tags and fused reporters may be left off the sequences shown.

Chains of the proteins cited; added tags and fusions are not shown.
UniProt Q86WV6: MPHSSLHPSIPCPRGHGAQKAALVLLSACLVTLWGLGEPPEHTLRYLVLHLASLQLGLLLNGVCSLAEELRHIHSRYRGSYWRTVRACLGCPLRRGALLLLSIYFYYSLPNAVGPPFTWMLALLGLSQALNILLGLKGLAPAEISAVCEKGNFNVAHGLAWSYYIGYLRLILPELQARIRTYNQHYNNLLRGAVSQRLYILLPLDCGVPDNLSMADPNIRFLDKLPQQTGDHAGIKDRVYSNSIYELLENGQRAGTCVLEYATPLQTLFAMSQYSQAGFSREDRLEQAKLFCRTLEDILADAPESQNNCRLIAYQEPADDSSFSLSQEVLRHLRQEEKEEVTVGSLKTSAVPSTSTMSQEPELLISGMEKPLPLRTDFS
UniProt Q92793: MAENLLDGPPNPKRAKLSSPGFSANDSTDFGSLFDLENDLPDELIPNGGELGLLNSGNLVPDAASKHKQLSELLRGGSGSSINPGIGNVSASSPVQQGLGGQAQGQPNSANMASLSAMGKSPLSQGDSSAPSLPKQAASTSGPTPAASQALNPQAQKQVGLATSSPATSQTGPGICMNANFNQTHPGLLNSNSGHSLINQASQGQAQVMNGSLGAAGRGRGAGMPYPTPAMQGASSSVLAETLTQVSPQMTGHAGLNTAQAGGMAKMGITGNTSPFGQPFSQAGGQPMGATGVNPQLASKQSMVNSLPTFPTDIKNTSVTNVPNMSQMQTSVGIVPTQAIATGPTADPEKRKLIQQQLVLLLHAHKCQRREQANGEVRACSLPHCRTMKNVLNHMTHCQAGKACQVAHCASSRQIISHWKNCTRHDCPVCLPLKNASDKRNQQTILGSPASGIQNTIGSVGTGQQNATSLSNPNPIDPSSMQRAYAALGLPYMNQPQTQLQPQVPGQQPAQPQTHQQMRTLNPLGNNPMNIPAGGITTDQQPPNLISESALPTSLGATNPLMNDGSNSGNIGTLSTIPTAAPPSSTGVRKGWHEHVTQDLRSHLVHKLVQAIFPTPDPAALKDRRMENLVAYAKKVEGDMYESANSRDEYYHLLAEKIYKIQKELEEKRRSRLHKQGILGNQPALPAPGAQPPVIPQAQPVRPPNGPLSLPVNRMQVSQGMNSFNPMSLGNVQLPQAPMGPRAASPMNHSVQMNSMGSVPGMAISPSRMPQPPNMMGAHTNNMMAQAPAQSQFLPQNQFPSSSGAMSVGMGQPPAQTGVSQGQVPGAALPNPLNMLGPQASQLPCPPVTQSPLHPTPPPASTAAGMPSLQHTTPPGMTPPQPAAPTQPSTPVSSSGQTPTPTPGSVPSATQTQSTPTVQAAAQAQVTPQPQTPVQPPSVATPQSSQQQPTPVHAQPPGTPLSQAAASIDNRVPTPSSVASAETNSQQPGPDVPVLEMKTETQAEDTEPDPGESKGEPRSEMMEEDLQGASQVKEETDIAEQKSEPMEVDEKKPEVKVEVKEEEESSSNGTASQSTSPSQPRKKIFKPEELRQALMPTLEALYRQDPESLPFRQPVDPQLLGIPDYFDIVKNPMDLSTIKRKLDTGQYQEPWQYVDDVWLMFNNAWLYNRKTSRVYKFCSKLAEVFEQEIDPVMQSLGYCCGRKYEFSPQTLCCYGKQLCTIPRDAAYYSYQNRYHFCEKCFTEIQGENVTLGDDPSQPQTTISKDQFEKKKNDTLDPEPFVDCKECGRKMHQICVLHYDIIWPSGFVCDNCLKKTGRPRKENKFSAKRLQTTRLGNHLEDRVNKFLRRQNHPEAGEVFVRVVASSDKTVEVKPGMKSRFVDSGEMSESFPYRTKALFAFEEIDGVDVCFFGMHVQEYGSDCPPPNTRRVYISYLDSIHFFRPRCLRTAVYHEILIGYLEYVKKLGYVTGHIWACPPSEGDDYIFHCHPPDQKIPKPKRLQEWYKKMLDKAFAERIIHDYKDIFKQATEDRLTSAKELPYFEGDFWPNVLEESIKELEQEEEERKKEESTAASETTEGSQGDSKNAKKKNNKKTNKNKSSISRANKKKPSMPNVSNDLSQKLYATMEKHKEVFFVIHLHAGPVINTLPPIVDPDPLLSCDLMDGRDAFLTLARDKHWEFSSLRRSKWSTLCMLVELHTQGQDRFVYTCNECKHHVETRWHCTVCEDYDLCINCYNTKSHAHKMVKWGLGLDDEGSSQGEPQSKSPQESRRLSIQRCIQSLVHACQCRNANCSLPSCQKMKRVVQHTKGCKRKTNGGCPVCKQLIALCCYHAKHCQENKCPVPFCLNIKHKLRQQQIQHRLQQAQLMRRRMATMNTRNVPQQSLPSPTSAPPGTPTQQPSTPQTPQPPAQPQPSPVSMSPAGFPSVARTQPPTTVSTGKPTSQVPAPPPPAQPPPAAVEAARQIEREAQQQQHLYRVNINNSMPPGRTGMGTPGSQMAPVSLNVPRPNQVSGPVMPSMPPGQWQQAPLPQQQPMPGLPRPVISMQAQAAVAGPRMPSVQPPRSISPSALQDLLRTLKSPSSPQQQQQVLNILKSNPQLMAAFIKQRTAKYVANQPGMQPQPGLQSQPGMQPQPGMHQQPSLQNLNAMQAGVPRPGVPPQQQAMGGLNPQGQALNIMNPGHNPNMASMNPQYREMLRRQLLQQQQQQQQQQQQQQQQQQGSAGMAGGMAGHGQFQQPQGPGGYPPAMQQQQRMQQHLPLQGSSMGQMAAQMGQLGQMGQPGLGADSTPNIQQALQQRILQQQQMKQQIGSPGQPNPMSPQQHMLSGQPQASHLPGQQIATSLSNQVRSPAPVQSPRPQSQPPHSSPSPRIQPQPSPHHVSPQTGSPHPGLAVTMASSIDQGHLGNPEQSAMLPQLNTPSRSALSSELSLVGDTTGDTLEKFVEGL
UniProt Q09472: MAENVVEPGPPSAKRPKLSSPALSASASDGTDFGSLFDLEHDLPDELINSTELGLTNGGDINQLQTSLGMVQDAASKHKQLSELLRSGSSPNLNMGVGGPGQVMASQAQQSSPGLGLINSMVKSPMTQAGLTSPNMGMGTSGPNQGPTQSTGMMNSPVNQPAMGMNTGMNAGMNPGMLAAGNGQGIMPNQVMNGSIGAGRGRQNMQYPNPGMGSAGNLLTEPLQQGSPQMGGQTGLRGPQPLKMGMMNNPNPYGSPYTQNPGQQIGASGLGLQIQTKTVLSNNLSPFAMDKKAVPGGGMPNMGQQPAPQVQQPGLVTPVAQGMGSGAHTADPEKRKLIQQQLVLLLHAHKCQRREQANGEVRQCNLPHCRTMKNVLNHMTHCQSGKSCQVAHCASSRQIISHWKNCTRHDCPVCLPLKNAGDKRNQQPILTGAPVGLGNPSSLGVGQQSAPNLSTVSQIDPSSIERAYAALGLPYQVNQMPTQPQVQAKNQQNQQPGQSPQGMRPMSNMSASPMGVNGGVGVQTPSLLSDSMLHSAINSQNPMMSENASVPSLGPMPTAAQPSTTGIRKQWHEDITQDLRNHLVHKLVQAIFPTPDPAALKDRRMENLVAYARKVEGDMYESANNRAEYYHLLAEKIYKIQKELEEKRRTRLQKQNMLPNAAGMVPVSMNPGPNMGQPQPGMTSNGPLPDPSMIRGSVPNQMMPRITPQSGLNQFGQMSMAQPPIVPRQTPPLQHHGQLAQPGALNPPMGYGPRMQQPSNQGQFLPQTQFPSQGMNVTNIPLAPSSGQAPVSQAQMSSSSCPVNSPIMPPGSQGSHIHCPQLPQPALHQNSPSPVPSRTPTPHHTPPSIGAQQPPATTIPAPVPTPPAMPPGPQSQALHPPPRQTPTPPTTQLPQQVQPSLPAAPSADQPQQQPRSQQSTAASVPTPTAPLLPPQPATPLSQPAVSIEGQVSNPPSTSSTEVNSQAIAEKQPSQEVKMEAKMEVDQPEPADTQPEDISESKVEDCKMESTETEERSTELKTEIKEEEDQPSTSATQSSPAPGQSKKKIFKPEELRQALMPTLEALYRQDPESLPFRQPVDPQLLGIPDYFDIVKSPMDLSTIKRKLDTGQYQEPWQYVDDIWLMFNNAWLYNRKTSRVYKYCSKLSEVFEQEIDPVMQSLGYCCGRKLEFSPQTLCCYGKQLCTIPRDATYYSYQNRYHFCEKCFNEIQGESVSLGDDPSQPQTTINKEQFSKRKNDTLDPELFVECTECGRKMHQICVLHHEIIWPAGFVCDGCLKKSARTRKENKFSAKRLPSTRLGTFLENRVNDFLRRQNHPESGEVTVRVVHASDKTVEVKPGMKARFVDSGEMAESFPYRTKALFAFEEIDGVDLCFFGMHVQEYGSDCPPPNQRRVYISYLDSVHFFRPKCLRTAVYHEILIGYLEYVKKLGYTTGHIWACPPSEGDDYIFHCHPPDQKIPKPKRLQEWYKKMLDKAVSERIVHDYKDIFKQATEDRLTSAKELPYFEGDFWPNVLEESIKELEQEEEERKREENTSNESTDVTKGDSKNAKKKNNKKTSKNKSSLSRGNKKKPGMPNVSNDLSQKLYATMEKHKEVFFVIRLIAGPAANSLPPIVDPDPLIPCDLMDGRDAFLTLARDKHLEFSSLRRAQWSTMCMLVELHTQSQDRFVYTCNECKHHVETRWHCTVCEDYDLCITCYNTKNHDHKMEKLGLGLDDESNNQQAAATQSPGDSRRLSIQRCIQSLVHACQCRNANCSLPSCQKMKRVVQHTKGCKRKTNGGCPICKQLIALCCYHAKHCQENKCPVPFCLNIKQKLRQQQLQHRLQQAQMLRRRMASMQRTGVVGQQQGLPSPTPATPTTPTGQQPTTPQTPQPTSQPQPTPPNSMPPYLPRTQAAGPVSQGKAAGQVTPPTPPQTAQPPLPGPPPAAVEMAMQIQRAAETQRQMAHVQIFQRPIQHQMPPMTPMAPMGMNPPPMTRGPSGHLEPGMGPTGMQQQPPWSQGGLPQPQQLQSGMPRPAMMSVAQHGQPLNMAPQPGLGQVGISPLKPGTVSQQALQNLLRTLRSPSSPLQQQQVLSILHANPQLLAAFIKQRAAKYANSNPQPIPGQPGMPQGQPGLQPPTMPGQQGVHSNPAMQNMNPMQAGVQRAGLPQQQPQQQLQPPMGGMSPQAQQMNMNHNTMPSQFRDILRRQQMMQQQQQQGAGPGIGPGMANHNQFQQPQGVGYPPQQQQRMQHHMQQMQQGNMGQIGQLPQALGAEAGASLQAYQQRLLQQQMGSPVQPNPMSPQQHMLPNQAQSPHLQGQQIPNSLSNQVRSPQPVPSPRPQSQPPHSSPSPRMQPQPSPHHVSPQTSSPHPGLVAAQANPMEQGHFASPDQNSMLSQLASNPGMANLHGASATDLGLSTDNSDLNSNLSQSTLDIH

T1: Myc-tagged IRF3 (IRF3-Myc) (UniProt Q14653)
T1 sequence: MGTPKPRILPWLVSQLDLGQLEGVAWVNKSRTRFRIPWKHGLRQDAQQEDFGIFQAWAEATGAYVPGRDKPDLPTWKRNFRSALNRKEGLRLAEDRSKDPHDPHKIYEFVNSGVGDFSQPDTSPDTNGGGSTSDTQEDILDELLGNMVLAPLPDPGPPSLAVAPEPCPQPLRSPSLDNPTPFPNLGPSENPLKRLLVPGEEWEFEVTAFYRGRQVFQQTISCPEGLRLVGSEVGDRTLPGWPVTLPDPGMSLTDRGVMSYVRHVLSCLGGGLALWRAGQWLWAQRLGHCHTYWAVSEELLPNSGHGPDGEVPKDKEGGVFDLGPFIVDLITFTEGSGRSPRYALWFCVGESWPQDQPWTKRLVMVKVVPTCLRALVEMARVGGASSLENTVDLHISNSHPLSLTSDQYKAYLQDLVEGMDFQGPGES


Assays:
STING-Myc = STING-Myc (UniProt Q86WV6); assay: co-IP; HEK293T cells with STING-Myc and wild type or mutant vIRF1-Flag; anti-Myc immunoprecipitation, blot with anti-Flag; bands quantified, normalised to STING-Myc
[1] = target: T1, Myc-tagged IRF3 (IRF3-Myc); assay: co-IP; HEK293T cells with IRF3-Myc and wild type or mutant vIRF1-Flag; anti-Myc immunoprecipitation, blot with anti-Flag; bands quantified, normalised to IRF3-Myc
HA-tagged CBP (CBP-HA) [2] = target: HA-tagged CBP (CBP-HA) (UniProt Q92793); assay: co-IP; HEK293T cells with IRF3-Myc, p300-HA or CBP-HA, and wild type or mutant vIRF1-Flag or pHAGE, with or without SIRT6-Myc; anti-HA immunoprecipitation, blot with anti-Myc; bands quantified
HA-tagged p300 (p300-HA) [3] = target: HA-tagged p300 (p300-HA) (UniProt Q09472); assay: as above
HA-tagged CBP (CBP-HA) [4] = target: HA-tagged CBP (CBP-HA) (UniProt Q92793); assay: co-IP; THP-1 cells with IRF3-Myc, lentiviral vIRF1-Flag or pHAGE, p300-HA or CBP-HA; UBCS039 80 μM or DMSO 24 h; anti-HA immunoprecipitation, blot with anti-Myc
HA-tagged p300 (p300-HA) [5] = target: HA-tagged p300 (p300-HA) (UniProt Q09472); assay: as above

Molecule	binding (STING-Myc)	binding [1]	binding (HA-tagged CBP (CBP-HA) [2])	binding (HA-tagged p300 (p300-HA) [3])	binding (HA-tagged CBP (CBP-HA) [4])	binding (HA-tagged p300 (p300-HA) [5])
vIRF1 with Lys442 mutated to arginine, Flag-tagged (vIRF1-K442R-Flag) (from UniProt F5HF68 1-449)	no binding	no binding	–	–	–	–
vIRF1 with Lys406 mutated to arginine, Flag-tagged (vIRF1-K406R-Flag) (from UniProt F5HF68 1-449)	no binding	no binding	–	–	–	–
Myc-tagged IRF3 (IRF3-Myc) (protein, UniProt Q14653 1-427) MGTPKPRILPWLVSQLDLGQLEGVAWVNKSRTRFRIPWKHGLRQDAQQEDFGIFQAWAEATGAYVPGRDKPDLPTWKRNFRSALNRKEGLRLAEDRSKDPHDPHKIYEFVNSGVGDFSQPDTSPDTNGGGSTSDTQEDILDELLGNMVLAPLPDPGPPSLAVAPEPCPQPLRSPSLDNPTPFPNLGPSENPLKRLLVPGEEWEFEVTAFYRGRQVFQQTISCPEGLRLVGSEVGDRTLPGWPVTLPDPGMSLTDRGVMSYVRHVLSCLGGGLALWRAGQWLWAQRLGHCHTYWAVSEELLPNSGHGPDGEVPKDKEGGVFDLGPFIVDLITFTEGSGRSPRYALWFCVGESWPQDQPWTKRLVMVKVVPTCLRALVEMARVGGASSLENTVDLHISNSHPLSLTSDQYKAYLQDLVEGMDFQGPGES	–	–	binds	binds	binds	binds
